In doi:10.1101/595835:
Positions count from the first letter of the chain named. Names and notes keep the numbering of the source. Results are given in words; binding and its absence hold for the method and conditions named. For some of these results: Binding seen in cells or lysates may run through a third protein. Some results given as binding are weak or reduced against the parent protein; the word gives no strength. For some of these results: Sequences can lack the tags named with a protein. Values belong to the binder of their own block, whether it stands above or below them.

Amino acid sequences for entries named in this document (tags omitted). A change or cut given only in a name is not applied to a line headed by its entry. Chains listed by the source or under a name are the forms on record and can include a tag or linker.
biotinylated AviTag-haBiP^V461F(19-654), AMPylated (G3I8R9, form named): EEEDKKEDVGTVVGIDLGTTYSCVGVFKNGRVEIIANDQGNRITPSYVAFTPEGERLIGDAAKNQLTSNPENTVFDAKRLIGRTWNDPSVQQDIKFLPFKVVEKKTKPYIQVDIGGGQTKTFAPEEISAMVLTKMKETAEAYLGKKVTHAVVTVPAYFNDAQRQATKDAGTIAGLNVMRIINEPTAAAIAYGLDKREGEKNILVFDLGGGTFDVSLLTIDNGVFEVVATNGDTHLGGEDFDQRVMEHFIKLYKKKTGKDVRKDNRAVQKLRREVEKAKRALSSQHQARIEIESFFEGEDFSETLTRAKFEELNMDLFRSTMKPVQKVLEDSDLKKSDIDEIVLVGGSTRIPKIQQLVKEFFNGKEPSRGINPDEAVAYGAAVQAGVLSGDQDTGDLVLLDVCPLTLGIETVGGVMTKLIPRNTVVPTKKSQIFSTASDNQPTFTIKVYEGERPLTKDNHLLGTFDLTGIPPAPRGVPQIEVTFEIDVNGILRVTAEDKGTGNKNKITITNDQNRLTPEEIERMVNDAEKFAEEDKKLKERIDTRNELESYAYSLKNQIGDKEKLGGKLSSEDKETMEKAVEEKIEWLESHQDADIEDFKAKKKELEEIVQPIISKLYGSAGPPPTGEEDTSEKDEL

Columns and labels:
[1] = biological target: biotinylated AviTag-haBiP^V461F(19-654), AMPylated (Chinese hamster) (UniProt G3I8R9); test: BLI
[2] = biological target: Oregon Green-labelled FICD^L258D-NC (human) (UniProt Q9BVA6); test: AUC
[3] = biological target: wild-type FICD, orthogonally tagged copies co-expressed in CHO-K1 cells (UniProt Q9BVA6); test: pull-down + co-IP
[4] = biological target: FICD^L258D, orthogonally tagged copies co-expressed in CHO-K1 cells (UniProt Q9BVA6); test: pull-down + co-IP

B2: Oregon Green-labelled FICD^L258D-NC (domain or fragment, UniProt Q9BVA6 104-445)
chain: CLEARAALNQALEMKRQGKREKAQKLFMHALKMDPDFVDALTEFGIFSEEDKDIIQADYLYTRALTISPYHEKALVNRDRTLPLVEEIDQRYFSIIDSKVKKVMSIPKGNSALRRVMEETYYHHIYHTVAIEGNTLTLSEIRHILETRYAVPGKSDEEQNEVIGMHAAMKYINTTLVSRIGSVTISDVLEIHRRVLGYVDPVEAGRFRTTQVLVGHHIPPHPQDVEKQMQEFVQWLNSEEAMNLHPVEFAALAHYKLVYIHPFIDGNGRTSRLLMNLILMQAGYPPITIRKEQRSDYYHVLEAANEGDVRPFIRFIAKCTETTLDTLLFATTEYSVALPEAQP
modifications: Oregon Green 488 on the added N-terminal cysteine (labelling efficiency 9.6%)
binding [2]: no binding (tested: 1.6 µM to 31 pM)

B4: FICD^L258D, orthogonally tagged copies co-expressed in CHO-K1 cells (protein, UniProt Q9BVA6 1-458)
chain: MMLIPMASVMAVTEPKWVSVWSRFLWVTLLSMVLGSLLALLLPLGAVEEQCLAVLKGLYLLRSKPDRAQHAATKCTSPSTELSITSRGATLLVAKTKASPAGKLEARAALNQALEMKRQGKREKAQKLFMHALKMDPDFVDALTEFGIFSEEDKDIIQADYLYTRALTISPYHEKALVNRDRTLPLVEEIDQRYFSIIDSKVKKVMSIPKGNSALRRVMEETYYHHIYHTVAIEGNTLTLSEIRHILETRYAVPGKSDEEQNEVIGMHAAMKYINTTLVSRIGSVTISDVLEIHRRVLGYVDPVEAGRFRTTQVLVGHHIPPHPQDVEKQMQEFVQWLNSEEAMNLHPVEFAALAHYKLVYIHPFIDGNGRTSRLLMNLILMQAGYPPITIRKEQRSDYYHVLEAANEGDVRPFIRFIAKCTETTLDTLLFATTEYSVALPEAQPNHSGFKETLPVKP
modifications: biotin on the AviTag (copy with His6-AviTag)
binding [4]: no binding

Continued, values first:

binding [1]: binds
B1: S-SFICD^A252C-H363A-C421S (trap), covalent disulphide-linked dimer (domain or fragment, UniProt Q9BVA6 104-445)
chain: LEARAALNQALEMKRQGKREKAQKLFMHALKMDPDFVDALTEFGIFSEEDKDIIQADYLYTRALTISPYHEKALVNRDRTLPLVEEIDQRYFSIIDSKVKKVMSIPKGNSALRRVMEETYYHHIYHTVAIEGNTLTLSEIRHILETRYCVPGKSLEEQNEVIGMHAAMKYINTTLVSRIGSVTISDVLEIHRRVLGYVDPVEAGRFRTTQVLVGHHIPPHPQDVEKQMQEFVQWLNSEEAMNLHPVEFAALAHYKLVYIAPFIDGNGRTSRLLMNLILMQAGYPPITIRKEQRSDYYHVLEAANEGDVRPFIRFIAKSTETTLDTLLFATTEYSVALPEAQP
modifications: disulphide bond between the two chains through the introduced Cys252

binding [3]: binds
B3: wild-type FICD, orthogonally tagged copies co-expressed in CHO-K1 cells (protein, UniProt Q9BVA6 1-458)
chain: B4 chain with D258L
modifications: biotin on the AviTag (copy with His6-AviTag)
